Binding data for four molecules are collected here from publication PMC10117657.

Chains of the proteins cited; added tags and fusions are not shown. Residues count along the entry.
UniProt Q8IZJ1, residues 27-945: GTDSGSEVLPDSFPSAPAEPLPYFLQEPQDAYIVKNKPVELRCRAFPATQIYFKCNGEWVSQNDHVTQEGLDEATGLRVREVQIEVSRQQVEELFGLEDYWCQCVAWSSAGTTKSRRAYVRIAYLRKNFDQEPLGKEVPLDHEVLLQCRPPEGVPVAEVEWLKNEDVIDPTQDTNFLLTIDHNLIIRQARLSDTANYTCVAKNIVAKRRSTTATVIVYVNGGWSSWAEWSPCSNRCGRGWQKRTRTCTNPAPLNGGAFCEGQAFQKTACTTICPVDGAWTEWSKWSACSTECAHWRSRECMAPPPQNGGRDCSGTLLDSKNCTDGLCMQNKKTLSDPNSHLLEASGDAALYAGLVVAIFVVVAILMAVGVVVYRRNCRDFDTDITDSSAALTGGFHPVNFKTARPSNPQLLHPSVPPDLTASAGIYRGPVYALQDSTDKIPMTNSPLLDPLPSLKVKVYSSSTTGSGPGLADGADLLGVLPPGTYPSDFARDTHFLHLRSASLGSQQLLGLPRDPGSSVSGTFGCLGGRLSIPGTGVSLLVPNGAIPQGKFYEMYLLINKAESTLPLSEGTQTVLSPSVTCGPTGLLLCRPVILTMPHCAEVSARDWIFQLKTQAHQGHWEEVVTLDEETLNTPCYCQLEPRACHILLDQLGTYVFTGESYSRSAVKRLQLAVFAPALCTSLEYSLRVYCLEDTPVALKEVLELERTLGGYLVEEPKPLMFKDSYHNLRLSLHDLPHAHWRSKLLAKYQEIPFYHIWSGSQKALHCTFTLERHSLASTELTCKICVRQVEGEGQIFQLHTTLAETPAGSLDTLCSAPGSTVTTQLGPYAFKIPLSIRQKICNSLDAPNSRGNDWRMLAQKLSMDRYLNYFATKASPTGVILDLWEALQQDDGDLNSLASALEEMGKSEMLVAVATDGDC
UniProt P06730: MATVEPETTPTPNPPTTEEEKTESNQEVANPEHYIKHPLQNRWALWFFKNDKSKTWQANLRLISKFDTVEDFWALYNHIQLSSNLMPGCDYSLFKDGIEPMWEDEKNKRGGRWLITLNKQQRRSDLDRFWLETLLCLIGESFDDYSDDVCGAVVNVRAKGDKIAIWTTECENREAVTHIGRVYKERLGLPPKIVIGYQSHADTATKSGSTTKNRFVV
UniProt P16520: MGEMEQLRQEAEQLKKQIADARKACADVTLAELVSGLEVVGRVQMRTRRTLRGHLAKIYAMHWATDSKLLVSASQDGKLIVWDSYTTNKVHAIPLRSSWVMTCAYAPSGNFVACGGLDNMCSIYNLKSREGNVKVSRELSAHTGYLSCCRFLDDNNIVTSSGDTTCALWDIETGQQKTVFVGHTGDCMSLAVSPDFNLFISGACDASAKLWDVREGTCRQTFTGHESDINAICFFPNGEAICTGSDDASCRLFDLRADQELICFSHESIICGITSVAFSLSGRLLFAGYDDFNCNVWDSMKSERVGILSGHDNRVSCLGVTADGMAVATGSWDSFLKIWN

The target in this assay is Flag-UNC5B (human) (UniProt Q8IZJ1). Briefly: affinity purification with mass spectrometry; HEK293T cells transfected with control vector or Flag-UNC5B for 48 h; samples collected with anti-Flag antibody; LC-MS/MS.

No constants are given. Whether binding was seen depends on the method and setting. In cells and extracts the contact can be indirect. A yes stands for co-enrichment or nearness to the bait. Other partners may have been found.

For “EIF4E (endogenous, HEK293T) (from UniProt P06730 1-217)”, the binding entry is on record as “binds”. Under “GNB3 (endogenous, HEK293T) (from UniProt P16520 1-340)” stands “binds”.

B1: CDC37 (endogenous, HEK293T) (protein, UniProt Q16543 1-378)
chain: MVDYSVWDHIEVSDDEDETHPNIDTASLFRWRHQARVERMEQFQKEKEELDRGCRECKRKVAECQRKLKELEVAEGGKAELERLQAEAQQLRKEERSWEQKLEEMRKKEKSMPWNVDTLSKDGFSKSMVNTKPEKTEEDSEEVREQKHKTFVEKYEKQIKHFGMLRRWDDSQKYLSDNVHLVCEETANYLVIWCIDLEVEEKCALMEQVAHQTIVMQFILELAKSLKVDPRACFRQFFTKIKTADRQYMEGFNDELEAFKERVRGRAKLRIEKAMKEYEEEERKKRLGPGGLDPVEVYESLPEELQKCFDVKDVQMLQDAISKMDPTDAKYHMQRCIDSGLWVPNSKASEAKEGEEAGPGDPLLEAVPKTGDEKDVSV
Turning to B1, the binding entry was “binds”.

B2: PPP2R2D (endogenous, HEK293T) (protein, UniProt Q66LE6 1-453)
chain: MAGAGGGGCPAGGNDFQWCFSQVKGAIDEDVAEADIISTVEFNYSGDLLATGDKGGRVVIFQREQENKSRPHSRGEYNVYSTFQSHEPEFDYLKSLEIEEKINKIRWLPQQNAAHFLLSTNDKTIKLWKISERDKRAEGYNLKDEDGRLRDPFRITALRVPILKPMDLMVEASPRRIFANAHTYHINSISVNSDHETYLSADDLRINLWHLEITDRSFNIVDIKPANMEELTEVITAAEFHPHQCNVFVYSSSKGTIRLCDMRSSALCDRHSKFFEEPEDPSSRSFFSEIISSISDVKFSHSGRYMMTRDYLSVKVWDLNMESRPVETHQVHEYLRSKLCSLYENDCIFDKFECCWNGSDSAIMTGSYNNFFRMFDRDTRRDVTLEASRESSKPRASLKPRKVCTGGKRRKDEISVDSLDFNKKILHTAWHPVDNVIAVAATNNLYIFQDKIN
Regarding B2, the binding result is listed as “binds”.
